Some results were stated once for a whole list of compounds, not compound by compound.
Tests used:
Type in all cases: in vivo
Venturia inaequalis = assay: Venturia test (apple)/protective; conditions: apple plants, protective spray, application rate 100 g/ha, evaluation 10 days after inoculation; 100% = no infection
Botrytis cinerea = assay: Botrytis test (bean)/protective; conditions: bean plants, protective spray, application rate 500 g/ha, evaluation 2 days after inoculation; 100% = no infection
Sphaerotheca fuliginea = assay: Sphaerotheca test (cucumber)/protective; conditions: cucumber plants, protective spray, application rate 750 g/ha, evaluation 7 days after inoculation; 100% = no infection

Measured: efficacy

CC(Nc1c(-c2ccc(F)cc2Cl)c(Cl)nc2c(C(N)=NO)cnn12)C(C)(C)C (stereo not drawn) [Example 2, 3-hydroximinoamido-5-chloro-6-(2-chloro-4-fluorophenyl)-7-(3,3-dimethylbut-2-ylamino)pyrazolo[1,5-a]pyrimidine]
more than 90%: all assays above
